From PubChem BioAssay AID2685 (National Center for Advancing Translational Sciences (NCATS), 2010) come the findings set out here.

For orientation: AC50 means the midpoint of the concentration-response curve, whichever way the signal moves. Read a high AC50 as weaker potency.

Each structure is given as a SMILES string. The list shows a part of the results. Further columns of the screen follow, without active or inactive calls. Compounds called inactive in the main read-out are mostly missing here. Potencies come from curve fits of mixed quality, noted in brackets.

This test is described as follows: qHTS Assay for Lipid Storage Modulators in Drosophila S3 Cells.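 As to cell number change: cells counted by Cell Tracker Red CMTPX staining in the red channel.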 Conditions: BODIPY lipid droplet fluorescence, 18-24 h; for cell number change: measured here: cell count max response, cells fed with added oleic acid. The procedure, abridged:
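Laser-scanning cytometry quantifies lipid droplet accumulation (500–530 nm total intensity; droplet/cell object ratio) in oleic acid-fed (400 uM added) Drosophila S3 cells treated with a concentration series. 20 uM Triacsin C defined 100% inhibition.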

The mark [1] stands for this setting: measured here: lipid fluorescence (Fed channel) AC50, cells fed with added oleic acid.
Setting [2] is: measured here: cell number channel AC50, cells fed with added oleic acid.

`CN1CCN(C(=O)c2cccc(NS(=O)(=O)c3ccc(Br)cc3)c2)CC1`: the cell number change amounted to 17.1%. Moreover, the half-maximal activity concentration (AC50) under setting [1] is 0.103 µM [rising, full curve, poor fit].
With `Cc1ccnc(NC(=O)c2cccc(S(=O)(=O)N3CCCC3)c2)c1`, the cell number change is -6.45%.
Take `CCCCN(CCCC)Cc1ccc(N)cc1`: the cell number change amounted to 2.7%.
Turning to `CN(C)C=NC(=O)c1cc(C(=O)c2ccc(Cl)cc2)c[nH]1`, the cell number change came out at 8.92%. Also, the AC50 under setting [1] was 29.1 µM [rising, single point].
Take `CC1(C)CC(=O)C(C=NCCO)=C(O)C1`: the cell number change was -38%. In addition, under setting [2], the AC50 was 4.61 µM [falling, full curve]. Also, under setting [1], the concentration at half-maximal activity (AC50) was 7.31 µM [falling, partial curve].
For the molecule `COc1cc(C2/C(=C(\O)c3ccc4c(c3)CC(C)O4)C(=O)C(=O)N2Cc2ccco2)ccc1O` (stereo not drawn), the cell number change is -4.68%. Also, under setting [1], the AC50 is 0.103 µM [falling, full curve, poor fit].
As to `Cc1ccc(-c2nc(Nc3cccc(O)c3)c3ccccc3n2)cc1`, the cell number change was -44.8%. The AC50 under setting [2] is 29.1 µM [falling, single point]. In addition, under setting [1], the AC50 was 29.1 µM [falling, single point].
`O=C1NC(c2ccc(-c3ccccc3[N+](=O)[O-])o2)C(C(=O)c2ccc(Cl)cc2)C(O)(C(F)(F)F)N1` (stereo not drawn): the cell number change is -57%. In addition, the AC50 under setting [2] was 13 µM [falling, partial curve]. Further, the AC50 under setting [1] was 14.6 µM [falling, partial curve].
Consider `CCc1ccccc1NC(=O)C1CC(c2ccc(F)cc2)=NO1` (stereo not drawn), for which the cell number change came to 3.47%. Moreover, under setting [1], the AC50 is 0.058 µM [rising, full curve].
Turning to `Cc1ccc2cccc(S(=O)(=O)Nc3ccc4c(c3)OCO4)c2n1`, the cell number change was -14%. Moreover, the half-maximal activity concentration (AC50) under setting [1] was 1.3 µM [rising, full curve].
As for `CCC(=O)N1CCN(c2ccc(NC(=O)c3ccc(N4CCCC4)c([N+](=O)[O-])c3)cc2)CC1`, the cell number change was -22.6%. Besides, the half-maximal activity concentration (AC50) under setting [1] is 1.84 µM [falling, partial curve, poor fit].
With `COc1cc(C2C(C#N)=C(C)NC3=C2C(=O)CC(C)(C)C3)cc(OC)c1O` (stereo not drawn), the cell number change came out at 10.6%. The half-maximal activity concentration (AC50) under setting [1] was 2.06 µM [rising, full curve, poor fit].
For the molecule `CCC(=O)Nn1c(C)nnc1C`, the cell number change was -31.2%. Besides, under setting [2], the AC50 was 3.66 µM [falling, full curve]. The AC50 under setting [1] was 3.26 µM [falling, full curve].
Take `Cc1cc(Cl)ccc1OCC(=O)NCCCn1ccnc1`: the cell number change is 21.8%. Under setting [1], the AC50 was 6.51 µM [rising, single point].
`COc1ccc(N2C(=O)[C@@H]3[C@H](C2=O)[C@H]2c4ccccc4C=CN2[C@@H]3C(=O)Nc2ccccc2)cc1`: the cell number change was found to be 0.855%.
In the case of `COc1cc(C(=O)NCc2ccc3c(c2)OCO3)ccc1OCc1c(C)noc1C`, the cell number change is -1.6%. For the same molecule, under setting [1], the AC50 was 6.51 µM [falling, single point].
